The source of these data is PubChem BioAssay AID256 (DTP/NCI, 2004).

The list shows only some results of the screen, not a fair sample: it is rich in T/C values a quarter to a half above the control, in often repeated tests (any T/C) and in doses without a T/C. Further doses and runs are listed elsewhere. T/C: endpoint of the treated group in % of that of the vehicle group. Some entries give survivors of the animals treated and no T/C: the source holds a T/C of zero for them, seemingly a mark for toxic or unscored doses. Some doses without a T/C left all or most animals alive at the check, yet need not have been tolerated: survival well below the control is almost never listed, so the zero probably covers shortened survival too. Survivors were counted at the toxicity check, usually on the fifth day, unless a day is given; later deaths do not show. Schedule codes are those of the source, taken here to give the interval after Q, in days (D) or hours (H), and the number of doses after X. Some doses were run more than once; the results are listed from low to high. Where survival is the endpoint, this PubChem deposit counts one and a half times the control or more as active, and values a quarter to a half above the control carry no call in these data; other NCI protocols may use other cut-offs. Brackets with × give the number of equal values in this list. Some T/C values carry the count of animals alive at the toxicity check (mostly the fifth day); without a count, all were alive then.

The subject of the experiment is CD2F1 mice, L1210 leukemia ip, survival T/C. Description: NCI In Vivo Anticancer Drug Screen. Data for tumor model L1210 Leukemia (intraperitoneal) in CD2F1 (CDF1) mice. The following applies: higher T/C = longer survival. A digest of the protocol: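 Each value reflects a quotient of treated over vehicle control outcomes in mice with a transplanted tumor.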
Where [1] appears, read: T/C endpoint: mean survival time, dose: 25.0 mg/kg/injection, schedule: Q01DX009 (ip), vehicle: Klucel (hydroxypropylcellulose) (HPC).
Where [2] appears, read: T/C endpoint: mean survival time, dose: 50.0 mg/kg/injection, schedule: Q01DX009 (ip), vehicle: Klucel (hydroxypropylcellulose) (HPC).
[3] abbreviates: T/C endpoint: mean survival time, dose: 100.0 mg/kg/injection, schedule: Q01DX009 (ip), vehicle: Klucel (hydroxypropylcellulose) (HPC).
[4] abbreviates: T/C endpoint: mean survival time, dose: 200.0 mg/kg/injection, schedule: Q01DX009 (ip), vehicle: Klucel (hydroxypropylcellulose) (HPC).
Setting [5] is: T/C endpoint: mean survival time, dose: 400.0 mg/kg/injection, schedule: Q01DX009 (ip), vehicle: Klucel (hydroxypropylcellulose) (HPC).
Where [6] appears, read: T/C endpoint: mean survival time, dose: 400.0 mg/kg/injection, schedule: Q01DX009 (ip), vehicle: saline with Tween-80.
The mark [7] stands for this setting: T/C endpoint: mean survival time, dose: 400.0 mg/kg/injection, schedule: Q01DX001 (ip), vehicle: saline.
[8] abbreviates: T/C endpoint: mean survival time, dose: 400.0 mg/kg/injection, schedule: Q01DX001 (ip), vehicle: saline with Tween-80.
[9] abbreviates: T/C endpoint: mean survival time, dose: 400.0 mg/kg/injection, schedule: Q04DX003 (ip), vehicle: saline with Tween-80.
The mark [10] stands for this setting: T/C endpoint: mean survival time, dose: 200.0 mg/kg/injection, schedule: Q04DX003 (ip), vehicle: saline with Tween-80.
Where [11] appears, read: T/C endpoint: mean survival time, dose: 200.0 mg/kg/injection, schedule: Q01DX009 (ip), vehicle: saline with Tween-80.

As for `Cc1cc(N(CCCl)CCCl)ccc1N=Nc1ccccc1C(=O)O`, the T/C reads like this: (T/C endpoint: mean survival time, dose: 10.0 mg/kg/injection, schedule: Q01DX007 (ip), vehicle: saline) 136 % of control; (T/C endpoint: mean survival time, dose: 10.0 mg/kg/injection, schedule: Q01DX009 (ip), vehicle: saline) 126 % of control; (T/C endpoint: mean survival time, dose: 10.0 mg/kg/injection, schedule: Q04DX003 (ip), vehicle: saline) 128 % of control; (T/C endpoint: mean survival time, dose: 16.0 mg/kg/injection, schedule: Q01DX009 (ip), vehicle: saline with Tween-80) 134 % of control; (T/C endpoint: mean survival time, dose: 20.0 mg/kg/injection, schedule: Q01DX007 (ip), vehicle: saline) 144 % of control; (T/C endpoint: mean survival time, dose: 20.0 mg/kg/injection, schedule: Q01DX009 (ip), vehicle: saline) 132 % of control (2×). The T/C (T/C endpoint: mean survival time, dose: 20.0 mg/kg/injection, schedule: Q03DX003 (ip), vehicle: saline) is 125 % of control; the T/C (T/C endpoint: mean survival time, dose: 20.0 mg/kg/injection, schedule: Q04DX003 (ip), vehicle: saline) is 126 % of control; the T/C (T/C endpoint: mean survival time, dose: 32.0 mg/kg/injection, schedule: Q04DX003 (ip), vehicle: saline with Tween-80) was 134 % of control [5 of 6 alive]; the T/C (T/C endpoint: mean survival time, dose: 40.0 mg/kg/injection, schedule: Q01DX009 (ip), vehicle: saline) was 126 and 143 % of control; the T/C (T/C endpoint: mean survival time, dose: 40.0 mg/kg/injection, schedule: Q03DX003 (ip), vehicle: saline) was 130 % of control; the T/C (T/C endpoint: mean survival time, dose: 40.0 mg/kg/injection, schedule: Q04DX003 (ip), vehicle: saline) is 132 % of control. Besides, the T/C is, setting by setting: (T/C endpoint: median survival time, dose: 10.0 mg/kg/injection, schedule: Q01DX009 (ip), vehicle: saline) 128 % of control; (T/C endpoint: median survival time, dose: 20.0 mg/kg/injection, schedule: Q01DX009 (ip), vehicle: saline) 128 % of control. Also, the survivor count is, setting by setting: (T/C endpoint: mean survival time, dose: 40.0 mg/kg/injection, schedule: Q01DX009 (ip), vehicle: saline with Tween-80) 5 of 6; (T/C endpoint: mean survival time, dose: 80.0 mg/kg/injection, schedule: Q01DX009 (ip), vehicle: saline with Tween-80) 0 of 6; (T/C endpoint: mean survival time, dose: 160.0 mg/kg/injection, schedule: Q01DX001 (ip), vehicle: saline with Tween-80) 3 of 6; (T/C endpoint: mean survival time, dose: 320.0 mg/kg/injection, schedule: Q01DX001 (ip), vehicle: saline with Tween-80) 3 of 6.

`O=C1C=CC(=O)N1c1ccc(Cl)cc1`: the survivor count (T/C endpoint: mean survival time, dose: 25.0 mg/kg/injection, schedule: Q01DX001 (ip), vehicle: Klucel (hydroxypropylcellulose) (HPC)) was 8 of 10 and the survivor count (T/C endpoint: mean survival time, dose: 25.0 mg/kg/injection, schedule: Q04DX003 (ip), vehicle: Klucel (hydroxypropylcellulose) (HPC)) was 4 of 10.

On to `Cc1cc(N(CC(C)Cl)CC(C)Cl)ccc1N=Nc1ccccc1C(=O)O` (stereo unspecified), for which the survivor count was 6 of 6 under setting [1], 0 of 3 under setting [2], 0 of 3 under setting [3] and 0 of 3 under setting [4].

With `O=[N+]([O-])c1ccc2c(c1)-c1[nH]c3ccccc3c1CS2`, the survivor count under setting [5] is on record as 2 of 6.

For `Cc1ccc(N/N=C/C(=O)O)cc1`, the survivor count (T/C endpoint: mean survival time, dose: 200.0 mg/kg/injection, schedule: Q04DX003 (ip), vehicle: other) is 6 of 6.

Regarding `COc1cc(C(=O)N/N=C/c2ccc(N(C)C)cc2)cc(OC)c1OC`, the survivor count under setting [6] is 0 of 6.

As to `O=S1(=O)CC23CC=CCC2(CC=CC3)C1` (stereo unspecified), the survivor count (T/C endpoint: mean survival time, dose: 400.0 mg/kg/injection, schedule: Q04DX003 (ip), vehicle: other) was 3 of 6.

In the case of `CCOC1(C)OC2C(CO)OC(n3ccc4c(N)ncnc43)C2O1` (stereo unspecified), the survivor count is listed as 1 of 6 (T/C endpoint: mean survival time, dose: 200.0 mg/kg/injection, schedule: Q01DX001 (ip), vehicle: saline) and 0 of 6 under setting [7].

In the case of `CC(C)c1cc2ccccc2s1`, the survivor count under setting [7] was 2 of 6.

Regarding `CCCCCCCCCCCCCCCCCC[N+]1(C)CCC[N+](C)(CCCCCCCCCCCCCCCCCC)CC1` (stereo unspecified), the T/C runs as follows: (T/C endpoint: mean survival time, dose: 100.0 mg/kg/injection, schedule: Q01DX001 (ip), vehicle: saline with Tween-80) 98, 102, 105 % of control (2×); (T/C endpoint: mean survival time, dose: 200.0 mg/kg/injection, schedule: Q01DX001 (ip), vehicle: saline with Tween-80) 98, 105, 108 % of control (2×); under setting [8], 104, 105, 109 % of control. In addition, the survivor count is reported as 1 of 3 under setting [8] and 3 of 3 under setting [9].

As to `CC(C)CCCC(C)C1CCC2C3CCC4=CC5(CCC4(C)C3CCC12C)SCCS5` (stereo unspecified), the survivor count under setting [8] is on record as 6 of 6.

On to `CCOCCNCc1ccc(Cl)c(Cl)c1`, for which, under setting [9], the survivor count is 0 of 6.

Regarding `CCC1(O)C(=O)OCc2c1cc1n(c2=O)Cc2cc3ccc(O)cc3nc2-1` (stereo unspecified), the T/C was 142 % of control (T/C endpoint: median survival time, dose: 7.5 mg/kg/injection, schedule: Q04DX002 (ip), vehicle: Klucel (hydroxypropylcellulose) (HPC)); 131 % of control (T/C endpoint: median survival time, dose: 15.0 mg/kg/injection, schedule: Q04DX002 (ip), vehicle: Klucel (hydroxypropylcellulose) (HPC)); 141 % of control (T/C endpoint: median survival time, dose: 30.0 mg/kg/injection, schedule: Q04DX002 (ip), vehicle: Klucel (hydroxypropylcellulose) (HPC)); 149 % of control (T/C endpoint: median survival time, dose: 120.0 mg/kg/injection, schedule: Q04DX002 (ip), vehicle: Klucel (hydroxypropylcellulose) (HPC)).

For `Cc1cc(NC(=O)CCc2ccc(N)cc2)ccc1S(=O)(=O)F`, the survivor count under setting [2] was 0 of 6. For the same molecule, under setting [3], the T/C was 125 % of control.

Take `CN(C)N=Nc1ccccc1C(N)=O`: under “T/C endpoint: mean survival time, dose: 67.0 mg/kg/injection, schedule: Q01DX009 (ip), vehicle: Klucel (hydroxypropylcellulose) (HPC)”, the T/C is 140 % of control. The survivor count runs as follows: (T/C endpoint: mean survival time, dose: 225.0 mg/kg/injection, schedule: Q01DX009 (ip), vehicle: Klucel (hydroxypropylcellulose) (HPC)) 0 of 6; (T/C endpoint: mean survival time, dose: 300.0 mg/kg/injection, schedule: Q01DX009 (ip), vehicle: Klucel (hydroxypropylcellulose) (HPC)) 0 of 6 and 2 of 6.

Regarding `O=C(Nc1ccc(Cl)c(Cl)c1)Nc1cc(Cl)ccc1Sc1ccc(Cl)cc1S(=O)(=O)O`, the survivor count is listed as 2 of 6 under setting [10] and 1 of 6 under setting [9].

With `CC(C)COCCCN`, the survivor count is given as 0 of 6 (T/C endpoint: mean survival time, dose: 200.0 mg/kg/injection, schedule: Q04DX003 (ip), vehicle: saline) and 0 of 6 (T/C endpoint: mean survival time, dose: 400.0 mg/kg/injection, schedule: Q04DX003 (ip), vehicle: saline).

As for `Nc1nc(N)c2c(n1)NCN(Cc1ccc(Cl)c(Cl)c1)C2`, the survivor count (T/C endpoint: mean survival time, dose: 100.0 mg/kg/injection, schedule: Q01DX009 (ip), vehicle: water) is recorded as 3 of 6.

With `OC1CC2CCC(C1)N2CCCN1c2ccccc2Sc2ccc(Cl)cc21` (stereo unspecified), the survivor count (T/C endpoint: mean survival time, dose: 60.0 mg/kg/injection, schedule: Q01DX009 (ip), vehicle: saline) is recorded as 2 of 6; the survivor count (T/C endpoint: mean survival time, dose: 133.0 mg/kg/injection, schedule: Q04DX003 (ip), vehicle: saline with Tween-80) is 1 of 6; the survivor count under setting [10] is 0 of 6; the survivor count (T/C endpoint: mean survival time, dose: 300.0 mg/kg/injection, schedule: Q04DX003 (ip), vehicle: saline with Tween-80) was 0 of 6.

On to `C[n+]1c(/C=C/c2c(O)ccc3ccccc23)ccc2ccccc21`, for which the survivor count (T/C endpoint: mean survival time, dose: 100.0 mg/kg/injection, schedule: Q01DX009 (ip), vehicle: saline with Tween-80) is 4 of 6; the survivor count under setting [11] is given as 3 of 6; the survivor count under setting [6] is 0 of 6.

On to `CCOC(=O)Nc1cc2c(c(N)n1)N=C(CN(C)c1ccccc1)CN2`, for which the survivor count by setting is: under setting [1], 6 of 6; under setting [2], 6 of 6; under setting [3], 6 of 6; under setting [4], 0 of 6.

`COC1OCC(N=[N+]=[N-])C(OS(C)(=O)=O)C1OS(C)(=O)=O` (stereo unspecified): under setting [11], the survivor count is listed as 3 of 6.

For the molecule `O=C1Nc2ccccc2C(=O)Nc2ccccc21`, under setting [5], the survivor count is recorded as 6 of 6.

With `CC([NH-])CC(C)[NH-].[I][Pt+2][I]` (stereo unspecified), the T/C (T/C endpoint: mean survival time, dose: 25.0 mg/kg/injection, schedule: Q04DX003 (ip), vehicle: saline with Tween-80) was 125 % of control.
